The EC50 is the concentration at which the effect is half-maximal.

Chains of the proteins cited; added tags and fusions are not shown. A line that says so, or that is headed by a name, gives the form on record, which may keep a tag or linker.
UniProt P13569, with tags, fused parts or gaps DEL508-508: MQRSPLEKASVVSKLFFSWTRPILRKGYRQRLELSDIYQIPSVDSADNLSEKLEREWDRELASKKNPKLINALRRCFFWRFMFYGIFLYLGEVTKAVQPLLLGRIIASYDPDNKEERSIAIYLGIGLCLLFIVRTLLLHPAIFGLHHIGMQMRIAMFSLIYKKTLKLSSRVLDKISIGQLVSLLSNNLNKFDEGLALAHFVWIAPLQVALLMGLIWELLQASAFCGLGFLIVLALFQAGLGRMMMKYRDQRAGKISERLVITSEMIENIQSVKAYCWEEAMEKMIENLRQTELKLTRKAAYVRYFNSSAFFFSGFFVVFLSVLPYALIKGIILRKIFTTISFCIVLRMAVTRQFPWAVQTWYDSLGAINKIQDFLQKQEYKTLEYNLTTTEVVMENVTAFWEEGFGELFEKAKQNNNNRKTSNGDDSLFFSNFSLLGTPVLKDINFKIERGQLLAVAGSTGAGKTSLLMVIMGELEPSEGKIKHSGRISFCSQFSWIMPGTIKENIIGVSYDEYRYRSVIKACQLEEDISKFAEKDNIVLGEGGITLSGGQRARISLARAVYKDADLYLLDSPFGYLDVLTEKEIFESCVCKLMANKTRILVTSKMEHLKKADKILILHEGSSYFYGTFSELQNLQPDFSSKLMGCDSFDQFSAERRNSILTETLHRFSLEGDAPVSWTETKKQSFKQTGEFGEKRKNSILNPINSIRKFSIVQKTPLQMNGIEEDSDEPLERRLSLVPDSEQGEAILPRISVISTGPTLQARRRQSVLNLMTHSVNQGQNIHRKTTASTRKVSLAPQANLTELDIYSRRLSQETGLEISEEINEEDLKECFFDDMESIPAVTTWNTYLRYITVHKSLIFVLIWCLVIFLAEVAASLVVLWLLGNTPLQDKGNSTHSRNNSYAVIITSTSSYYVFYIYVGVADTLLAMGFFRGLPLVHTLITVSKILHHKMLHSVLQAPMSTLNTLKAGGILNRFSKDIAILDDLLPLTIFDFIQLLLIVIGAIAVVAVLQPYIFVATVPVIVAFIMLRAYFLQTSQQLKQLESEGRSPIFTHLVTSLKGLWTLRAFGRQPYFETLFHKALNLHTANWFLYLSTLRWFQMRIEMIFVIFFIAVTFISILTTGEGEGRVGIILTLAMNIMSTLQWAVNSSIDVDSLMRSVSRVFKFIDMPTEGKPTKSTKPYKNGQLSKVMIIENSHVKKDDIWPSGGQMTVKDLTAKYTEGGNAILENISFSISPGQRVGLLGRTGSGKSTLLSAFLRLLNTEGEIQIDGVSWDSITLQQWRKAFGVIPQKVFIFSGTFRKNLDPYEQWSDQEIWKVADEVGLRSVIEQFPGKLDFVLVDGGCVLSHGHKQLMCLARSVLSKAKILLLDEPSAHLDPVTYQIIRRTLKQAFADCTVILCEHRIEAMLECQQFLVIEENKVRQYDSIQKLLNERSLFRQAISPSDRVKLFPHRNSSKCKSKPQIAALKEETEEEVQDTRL

The match of structure and compound is tentative.

These results are taken from patent US20230373974A1, “MODULATORS OF CYSTIC FIBROSIS TRANSMEMBRANE CONDUCTANCE REGULATOR” (VERTEX PHARMACEUTICALS INCORPORATED, priority 2020, published 2023).

This assay has as its target F508del in NIH 3T3 cells (Homo sapiens, UniProt P13569, DEL508-508). The assay is described as follows: 3T3 assay: membrane potential optical assay for F508del correction. To be noted: F508del NIH 3T3 cells. The source says:
1. Membrane Potential Optical Methods for Assaying F508del Modulation Properties of Compounds
The assay utilizes fluorescent voltage sensing dyes to measure changes in membrane potential using a fluorescent plate reader (e.g., FLIPR III, Molecular Devices, Inc.) as a readout for increase in functional F508del in NIH 3T3 cells. The driving force for the response is the creation of a chloride ion gradient in conjunction with channel activation by a single liquid addition step after the cells have previously been treated with compounds and subsequently loaded with a voltage sensing dye.
2. Identification of Corrector Compounds
To identify correctors of F508del, a single-addition HTS assay format was developed. This HTS assay utilizes fluorescent voltage sensing dyes to measure changes in membrane potential on the FLIPR III as a measurement for increase in gating (conductance) of F508del in F508del NIH 3T3 cells. The F508del NIH 3T3 cell cultures were incubated with the corrector compounds at a range of concentrations for 18-24 hours at 37° C., and subsequently loaded with a redistribution dye. The driving force for the response is a Cl^− ion gradient in conjunction with channel activation with forskolin in a single liquid addition step using a fluorescent plate reader such as FLIPR III. […]

For `CCC(C)(C)C1CCc2nc(NS(=O)(=O)c3ccccc3)sc2C1` (centres unmarked), under “efficacy compared to lumacaftor in combination with acutely added 300 nM Ivacaftor”, the “3T3 Max Activity (%)” value was “++ (++ is 30-60%)”. For the same molecule, the concentration for a half-maximal effect (EC50) (read-out: 3T3 EC50, incubated with compound 18-24 hours at 37° C., forskolin activation) lay within 1000 to 3000 nM.
